Data as given in article PMC9475553, “SHF Acts as a Novel Tumor Suppressor in Glioblastoma Multiforme by Disrupting STAT3 Dimerization” (Advanced Science, 2022).
Results are given in words; binding and its absence hold for the method and conditions named. Some binding calls cover weakened binding; strength is not graded here.

Chains of the proteins cited; added tags and fusions are not shown. Residues count along the entry.
UniProt Q7M4L6, residues 388-421: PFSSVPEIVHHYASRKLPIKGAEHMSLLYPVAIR
UniProt P40763: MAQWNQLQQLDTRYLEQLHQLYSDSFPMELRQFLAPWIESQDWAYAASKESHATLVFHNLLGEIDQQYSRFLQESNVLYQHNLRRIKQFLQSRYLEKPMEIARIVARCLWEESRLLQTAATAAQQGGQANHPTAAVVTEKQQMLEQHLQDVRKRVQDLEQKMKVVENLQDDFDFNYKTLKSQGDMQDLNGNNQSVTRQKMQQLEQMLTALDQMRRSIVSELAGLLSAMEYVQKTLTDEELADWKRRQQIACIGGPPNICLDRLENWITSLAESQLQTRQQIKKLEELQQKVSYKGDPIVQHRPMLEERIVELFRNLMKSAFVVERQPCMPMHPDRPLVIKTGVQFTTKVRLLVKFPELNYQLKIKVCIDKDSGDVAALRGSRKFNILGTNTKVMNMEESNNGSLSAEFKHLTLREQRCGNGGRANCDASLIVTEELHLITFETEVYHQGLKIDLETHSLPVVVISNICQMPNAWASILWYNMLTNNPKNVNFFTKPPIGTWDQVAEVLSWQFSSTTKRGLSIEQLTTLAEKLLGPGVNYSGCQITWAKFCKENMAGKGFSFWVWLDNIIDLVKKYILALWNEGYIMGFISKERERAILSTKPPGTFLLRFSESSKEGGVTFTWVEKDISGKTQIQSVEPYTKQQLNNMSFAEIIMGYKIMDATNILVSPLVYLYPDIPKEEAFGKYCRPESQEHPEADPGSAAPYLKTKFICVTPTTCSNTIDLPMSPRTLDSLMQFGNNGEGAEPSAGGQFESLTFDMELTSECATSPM

Target: C16 peptide (derived from the STAT3-binding sites of SHF) (human) (UniProt Q7M4L6)
Experiment: pull-down; GST-STAT3 incubated with C16 or SC for 2 h, pull-down with Anti-His magnetic beads; both purified

Q: For GST-STAT3 (from UniProt P40763 1-770), which binding is on record?
A: Its binding is “binds”.
